Laboratory results published in PubChem BioAssay AID248 (DTP/NCI, 2004).
The list is a part of this screen's results and no random one: it gathers tests that were run many times, whatever their T/C, doses with no T/C, and many T/C values between a quarter and a half above the control. Further doses and runs are listed elsewhere. T/C gives the treated animals as a percentage of the vehicle group. Some entries give survivors of the animals treated and no T/C: the source files T/C as zero there, which appears to mark a toxic dose or a test without result, not a measured value. Some doses without a T/C left all or most animals alive at the check, yet need not have been tolerated: survival well below the control is almost never listed, so the zero probably covers shortened survival too. Survivors were counted at the toxicity check, usually on the fifth day, unless a day is given; later deaths do not show. Schedule codes are those of the source, read here as Q, the interval in days (D) or hours (H), X, the number of doses. Some schedule codes hold Z or #, which are not explained here. Some entries were tested several times; their values stand side by side, smallest first. For survival time, the PubChem record calls one and a half times the control and up active, and a quarter to a half above the control has no call in these data; cut-offs in other NCI protocols can differ. Some T/C values are followed by the survivors on the day toxicity was checked, most often the fifth; where none is given, no animal had died by that day.

System: L1210 leukemia ip in BDF1 mice, survival T/C
Assay: NCI In Vivo Anticancer Drug Screen. Data for tumor model L1210 Leukemia (intraperitoneal) in B6D2F1 (BDF1) mice
Conditions: T/C endpoint: mean survival time, higher T/C = longer survival
[1] = dose: 50.0 mg/kg/injection, schedule: Q04DX003 (ip), vehicle: Klucel (hydroxypropylcellulose) (HPC)
[2] = dose: 100.0 mg/kg/injection, schedule: Q01DX009 (ip), vehicle: Klucel (hydroxypropylcellulose) (HPC)
[3] = dose: 100.0 mg/kg/injection, schedule: Q04DX003 (ip), vehicle: Klucel (hydroxypropylcellulose) (HPC)
[4] = dose: 200.0 mg/kg/injection, schedule: Q04DX003 (ip), vehicle: Klucel (hydroxypropylcellulose) (HPC)
[5] = dose: 400.0 mg/kg/injection, schedule: Q04DX003 (ip), vehicle: Klucel (hydroxypropylcellulose) (HPC)
[6] = dose: 400.0 mg/kg/injection, schedule: Q01DX009 (ip), vehicle: Klucel (hydroxypropylcellulose) (HPC)
[7] = dose: 400.0 mg/kg/injection, schedule: Q04DX003 (ip), vehicle: saline with Tween-80
[8] = dose: 400.0 mg/kg/injection, schedule: Q01DX001 (ip), vehicle: saline
[9] = dose: 300.0 mg/kg/injection, schedule: Q01DX001 (ip), vehicle: saline
[10] = dose: 115.0 mg/kg/injection, schedule: Q01DX009 (ip), vehicle: Klucel (hydroxypropylcellulose) (HPC)
[11] = dose: 170.0 mg/kg/injection, schedule: Q01DX009 (ip), vehicle: Klucel (hydroxypropylcellulose) (HPC)

## C=CCOCC(O)CN(C)CCCCCCCCCCCC (configuration not stated)
[1]
  survivor count: 0 of 6
[2]
  survivor count: 0 of 6
[3]
  survivor count: 0 of 6
[4]
  survivor count: 0 of 6 and 6 of 6
[5]
  survivor count: 0 of 6

## C/C=C/C(=O)Nc1ccc(CC)cc1
[6]
  survivor count: 3 of 6

## N#CCc1c(Cl)ccc(Cl)c1Cl
[2]
  survivor count: 1 of 6
dose: 200.0 mg/kg/injection, schedule: Q01DX009 (ip), vehicle: Klucel (hydroxypropylcellulose) (HPC)
  survivor count: 0 of 6
[4]
  survivor count: 1 of 6
[5]
  survivor count: 2 of 6

## C=CC(C(=O)OCC)C(O)CCC (configuration not stated)
[2]
  survivor count: 5 of 6

## N#CCC[P+](CCC#N)(CCC#N)CCCCCC[P+](CCC#N)(CCC#N)CCC#N
[7]
  survivor count: 2 of 6

## CC(=O)Oc1ccc(Cl)cc1C=O
[8]
  survivor count: 0 of 6

## Clc1ccc2c(c1)C1=NCCCN1c1cc(Cl)ccc1-2
dose: 40.0 mg/kg/injection, schedule: Q04DX003 (ip), vehicle: Klucel (hydroxypropylcellulose) (HPC)
  survivor count: 0 of 6
dose: 80.0 mg/kg/injection, schedule: Q04DX003 (ip), vehicle: Klucel (hydroxypropylcellulose) (HPC)
  survivor count: 0 of 6
[3]
  survivor count: 0 of 6
[4]
  survivor count: 0 of 6
[5]
  survivor count: 0 of 6

## Clc1nc(Sc2ccc(Br)cc2)c(Cl)c(Sc2ccc(Br)cc2)n1
dose: 125.0 mg/kg/injection, schedule: Q01DX001 (ip), vehicle: Klucel (hydroxypropylcellulose) (HPC)
  survivor count: 6 of 6

## CCOc1ccc(-c2nnc(Nc3ccc(S(=O)(=O)N4CCCCC4)cc3)s2)cc1
dose: 200.0 mg/kg/injection, schedule: Q01DX009 (ip), vehicle: saline with Tween-80
  survivor count: 3 of 3
dose: 400.0 mg/kg/injection, schedule: Q01DX009 (ip), vehicle: saline with Tween-80
  survivor count: 3 of 3

## CCCCC(CCC)(CCN)CCCC
dose: 32.0 mg/kg/injection, schedule: Q04DX003 (ip), vehicle: Klucel (hydroxypropylcellulose) (HPC)
  survivor count: 6 of 6
dose: 50.0 mg/kg/injection, schedule: Q01DX001 (ip), vehicle: carboxymethylcellulose (CMC)
  survivor count: 0 of 4 and 2 of 4
dose: 100.0 mg/kg/injection, schedule: Q01DX001 (ip), vehicle: carboxymethylcellulose (CMC)
  survivor count: 0 of 4
dose: 200.0 mg/kg/injection, schedule: Q01DX001 (ip), vehicle: carboxymethylcellulose (CMC)
  survivor count: 0 of 4
dose: 400.0 mg/kg/injection, schedule: Q01DX001 (ip), vehicle: carboxymethylcellulose (CMC)
  survivor count: 0 of 4

## CC1(c2ccco2)NC(=O)N(Cl)C1=O (configuration not stated)
dose: 25.0 mg/kg/injection, schedule: Q04DX003 (ip), vehicle: saline
  survivor count: 6 of 6
dose: 50.0 mg/kg/injection, schedule: Q04DX003 (ip), vehicle: saline
  survivor count: 6 of 6
dose: 200.0 mg/kg/injection, schedule: Q04DX003 (ip), vehicle: saline
  survivor count: 4 of 6
dose: 400.0 mg/kg/injection, schedule: Q04DX003 (ip), vehicle: saline
  survivor count: 0 of 6

## Cc1cc(NC(=O)c2ccc(C(=O)Nc3ccc(C4=NCCN4)c(C)c3)cc2)ccc1C1=NCCN1
dose: 110.0 mg/kg/injection, schedule: Q01DX Z (ip), vehicle: carboxymethylcellulose (CMC)
  T/C: 128 % of control
dose: 166.0 mg/kg/injection, schedule: Q01DX Z (ip), vehicle: carboxymethylcellulose (CMC)
  T/C: 132 % of control [5 of 6 alive]
dose: 168.0 mg/kg/injection, schedule: Q01DX Z (ip), vehicle: carboxymethylcellulose (CMC)
  T/C: 146 % of control
dose: 375.0 mg/kg/injection, schedule: Q01DX Z (ip), vehicle: carboxymethylcellulose (CMC)
  survivor count: 6 of 6

## O=S(=O)(O)SCCCNCCCNCCCSS(=O)(=O)O
dose: 150.0 mg/kg/injection, schedule: Q04DX003 (ip), vehicle: saline
  survivor count: 4 of 6
[9]
  survivor count: 0 of 6

## CNC(=O)Oc1ccc([N+](C)(C)C)cc1
dose: 38.0 mg/kg/injection, schedule: Q01DX001 (ip), vehicle: saline
  survivor count: 3 of 6
dose: 75.0 mg/kg/injection, schedule: Q01DX001 (ip), vehicle: saline
  survivor count: 0 of 6
dose: 150.0 mg/kg/injection, schedule: Q01DX001 (ip), vehicle: saline
  survivor count: 0 of 6
[9]
  survivor count: 0 of 6

## CCCC[N+](C)(C)CCCOC(=O)C1C2CC3OC(=O)C1C3C2 (configuration not stated)
dose: 25.0 mg/kg/injection, schedule: Q04DX003 (ip), vehicle: saline with Tween-80
  survivor count: 3 of 3
dose: 100.0 mg/kg/injection, schedule: Q04DX003 (ip), vehicle: saline with Tween-80
  survivor count: 1 of 3
dose: 200.0 mg/kg/injection, schedule: Q04DX003 (ip), vehicle: saline with Tween-80
  survivor count: 0 of 3
[7]
  survivor count: 0 of 3

## COc1cc(CC#N)ccc1C
dose: 75.0 mg/kg/injection, schedule: Q01DX009 (ip), vehicle: Klucel (hydroxypropylcellulose) (HPC)
  survivor count: 0 of 6
[10]
  survivor count: 0 of 6
[11]
  survivor count: 0 of 6

## NNC(=O)CNc1ccc(F)c(Cl)c1
dose: 200.0 mg/kg/injection, schedule: Q04DX002 (ip), vehicle: saline + alcohol
  survivor count: 1 of 3
dose: 400.0 mg/kg/injection, schedule: Q04DX002 (ip), vehicle: saline + alcohol
  survivor count: 0 of 3

## C(=C(c1ccccc1)c1ccccc1)C1=NCCS1
dose: 200.0 mg/kg/injection, schedule: Q03DX002 (ip), vehicle: saline with Tween-80
  survivor count: 1 of 3

## N#CCCOc1ccc(Cl)cc1
[7]
  survivor count: 3 of 6

## CNC(Cc1ccccc1)c1ccco1 (configuration not stated)
dose: 400.0 mg/kg/injection, schedule: Q04DX002 (ip), vehicle: saline with Tween-80
  survivor count: 0 of 3

## CCN(CC)CCNC(=O)c1ccc(N=Cc2cc(Cl)cc(Cl)c2O)cc1
[6]
  survivor count: 1 of 6

## CC(=O)[O][Hg][c]1cc(C)cc([N+](=O)[O-])c1O
dose: 35.0 mg/kg/injection, schedule: Q01DX009 (ip), vehicle: Klucel (hydroxypropylcellulose) (HPC)
  survivor count: 1 of 6
[1]
  survivor count: 0 of 6
dose: 55.0 mg/kg/injection, schedule: Q01DX009 (ip), vehicle: Klucel (hydroxypropylcellulose) (HPC)
  survivor count: 2 of 6
dose: 80.0 mg/kg/injection, schedule: Q01DX009 (ip), vehicle: Klucel (hydroxypropylcellulose) (HPC)
  survivor count: 0 of 6
[3]
  survivor count: 1 of 6
[4]
  survivor count: 0 of 6
[5]
  survivor count: 0 of 6

## Cc1cc(C)c(-c2c(O)c(Br)c(-c3c(C)cc(C)c(Br)c3C)c(O)c2Br)c(C)c1Br
[3]
  survivor count: 2 of 6
[10]
  survivor count: 0 of 6
[11]
  survivor count: 0 of 6
[4]
  survivor count: 0 of 6
[5]
  survivor count: 0 of 6

## CN(C)CCCCl
dose: 75.0 mg/kg/injection, schedule: Q01DX009 (ip), vehicle: saline
  survivor count: 6 of 6
dose: 150.0 mg/kg/injection, schedule: Q01DX009 (ip), vehicle: saline
  survivor count: 0 of 6
dose: 150.0 mg/kg/injection, schedule: Q01DX Z (ip), vehicle: other
  survivor count: 3 of 6
dose: 300.0 mg/kg/injection, schedule: Q04DX003 (ip), vehicle: saline
  survivor count: 2 of 6

## NC(N1CC1)(C(F)(F)F)C(F)(F)F
dose: 100.0 mg/kg/injection, schedule: Q01DX001 (ip), vehicle: saline
  survivor count: 2 of 6
dose: 200.0 mg/kg/injection, schedule: Q01DX001 (ip), vehicle: saline
  survivor count: 0 of 6
[8]
  survivor count: 0 of 6
